Source: patent publication US20020006958A1, “Substituted aminosalicylic acid amides with fungicidal effect and intermediate products for production thereof” (priority 1997, published 2002)
Some results were stated once for a whole list of compounds, not compound by compound.

Tests used:
[1] = system: Phytophthora infestans; type: in vivo; conditions: tomato plants, protective spray, application rate 100 g/ha, evaluation 3 days after inoculation, compared with untreated control
[2] = system: Venturia inaequalis; assay: Venturia test (apple)/protective; type: in vivo; conditions: apple plants, protective spray, application rate 100 g/ha, evaluation after 12 days, compared with untreated control

In the case of `O=CNc1cccc(C(=O)Nc2ccc(Oc3ncnc(Oc4ccccc4)c3F)cc2)c1O` [Example 1, N-[4-(5-fluoro-6-phenoxy-pyrimidin-4-yloxy)-phenyl]-3-formyl-amino-2-hydroxy-benzamide], the efficacy [1] is reported as “more than 80%” and the efficacy [2] is reported as “more than 80%”.
